Among all 1,200 compounds or so, fewer than 10 were called active. The call rests on the fitted dose curve; in most records, active means well fitted curve in the direction sought with a large enough effect; inconclusive means small, poorly fitted or top-dose-only effect, or another doubt; inactive means no such curve, though single readings can be large or run the other way. The list shows a part of the results.
assay: Confirmatory qHTS assay for inhibitors of Activation Induced Cytidine Deaminase (AID): UDG signals; conditions: UDG coupled enzyme activity counter-screen; at 115 µM (top of the series) unless noted; further: 0% is about no effect
Excerpt: Assay Provider (PI) Patricia Gearhart Ph.D.
National Institute on Aging
National Institute of Health (NIH), Bethesda, MD
Assay Provider (PI) Rahul Kohli Ph.D.
Perelman School of Medicine
University of Pennsylvania, Philadelphia, PA
Activation-Induced Deaminase (AID) is a cytosine deaminase which converts cytosine into uracil within stretches of ssDNA. The presence of uracil in DNA initiates a cascade of mutagenic DNA repair to introduce point mutations and DNA double strand breaks. Specific targeting of AID to the immunoglobulin heavy chain loci (Igh) promotes mutagenesis in the antibody variable region for somatic hypermutation (SHM) or switch regions leading to class switch recombination (CSR). However, AID also plays a role in accumulating unnecessary mutations across the genome. Mis-targeting of AID results in the initiation of tumor development and leads to greater drug resistance among cancer cells when continually expressed. To identify an AID inhibitor, a small molecule library will be screened in collaboration with NCATS core facility at NIH. To confirm biological function, inhibitors will be examined in an in vitro murine B-cell activation assay and subsequent secondary validation screens. Top molecules will be further screened to identify inhibitory efficacy against a wild type primary splenocytes assay. Using these approaches, we hope to identify a small molecule with great efficacy and low toxicity for use as a molecular probe to further characterize AID's intricacies, or even as a therapeutic.
A FRET based analysis of cytosine deamination, was developed to identify potential inhibitors of AID catalytic activity. This screen has two signal output, Read 1 evaluates the AID inhibition response. The second readout (Read 2) evaluates UDG response and is uses as a counterscreen to exclude false positive inhibitors. Inhibition in AID and inactivity in the UDG signal is the desired outcome for this assay.
SEQUENCE No. (e.g., 1, 2, 3, etc.); […] (e.g., Cells, Incubation, Reagent, etc.); VALUE; DESCRIPTION
1a; Reagent; 3 uL; [4/3x] 1 uM AID/2.67 U/mL UDG
1b; Reagent; 3 uL; 2 U/mL UDG
1c; Reagent; 3 uL; 1 uM AID
2a; Compound; 46 nL; Follow-up plates (0.64 uM - 10 mM)
2b; Control; 46 nL; ATA ([…] - 10 mM)
3; Time; 10 min; incubation at room temperature
5; Time; 4 hr; incubation at room temperature
6; Reagent; 4 uL; [2x] 250 mM NaOH
7; Time; 15 sec; centrifuge at 1000 rpm
8; Time; 30 min; incubation at room temperature
9a; Detection; fluorescence (Read 1: AID); EnVision (PerkinElmer) plate reader, 540 excitation and 590 emission filters
9b; Detection; fluorescence (Read 2: UDG); EnVision (PerkinElmer) plate reader, 560 excitation and 665 emission filters
NOTES (numbers refer to sequence above)
1a; Reagents were dispensed in a medium-binding black solid-bottom Greiner plates (789176F) using a BioRptr liquid dispenser. Dispense 3 uL of [4/3x] 1 uM AID (provided by Kohli lab) and [4/3x] 2 U/mL UDG (NEB M0280L) into columns 1, 2, 5 to 48.
1b; Dispense 3 uL of [4/3x] 2 U/mL UDG into column 3.
1c; Dispense 3 uL of [4/3x] 1 uM AID into column 4.
2a; Compound (7-points [uM]: 0.64; 3.2; 16; 80; 400; 2,000; 10,000; […]) double pin-transferred (Dip Factor = 2) using the Kalypsys (Wako USA) pintool equipped with a 1536 pinhead for a final concentration range of 7.32 nM - 114 uM.
2b; 10 mM Aurintricarboxylic Acid (Sigma A1895) (ATA, 8-point, n = 2, 1:2.5 dilution in column 2) double pin-transferred (Dip Factor = 2) using the Kalypsys (Wako USA) pintool equipped with a 1536 pinhead for a [final] range of 186 nM - 114 uM.
3; Room temperature incubation.
4; Dispense 1 uL of substrate mixture from the Kohli lab [4x] […] DJC20 and [4x] 250 nM DJC23 into columns 1 to 48 .
5; Room temperature incubation.
6; Dispense 4 uL of substrate mixture [2x] 250 mM NaOH into columns 1 to 48.
7; Centrifugation step to remove bubbles.
8; Room temperature incubation
9a; Fluorescence signal (column label AID) was read using the EnVision plate reader. […]

Structure (SMILES)	activity change, negative = inhibition
CCOC(=O)c1ccc(N2C(=O)c3[nH]nc(-c4ccccc4)c3C2c2ccc(CC)cc2)cc1 (centres undefined)	inactive: -4.52%
CC(C)(C)OC(=O)N1CCC(c2c(C(=O)NCc3cccc(Cl)c3)cnn2-c2ccc(F)cc2)CC1	inactive: -13.1%
CCc1ccc(C(=O)c2cn(CC(=O)Nc3cccc(OC)c3)c3ccc(OC)cc3c2=O)cc1	inactive: 1.76%
CCCCOc1ccc(-c2nn(-c3ccccc3)cc2C2NC(=O)NC(C)=C2C(=O)OCC)cc1 (centres undefined)	inactive: -17.2%
Cc1cccc(N2C(=O)N(CC(=O)C(C)(C)C)c3ccccc3S2(=O)=O)c1C	inactive: 2.18%
Cc1cc2nnc(SCc3ccc(F)cc3)n2c2ccccc12	inactive: 0.488%
CCOc1ccc(C(=O)c2cn(CC(=O)Nc3ccc(OC)cc3)c3cc4c(cc3c2=O)OCCO4)cc1	inactive: -3.24%
CCOc1ccc(C(=O)/C=C/c2cn(CC(O)CN3CCCCCC3)c3ccccc23)cc1 (centres undefined)	inactive: -4.79%
COc1cccc(CNC(=O)Cn2c(=O)ccc3cc(S(=O)(=O)N4CCC(C)CC4)ccc32)c1	inactive: -4.92%
CCOc1ccc(CCNc2ncnc3onc(-c4ccc(Cl)cc4)c23)cc1OCC	inactive: -4.41%
O=C(CCS(=O)(=O)c1nc(-c2cccs2)cc(C(F)(F)F)n1)Nc1ccc(OC(F)(F)F)cc1	inactive: 0.452%
CCOC(=O)C1CCN(c2nc3c(S(=O)(=O)c4ccccc4)nnn3c3ccsc23)CC1	inactive: 7.1%
CCOc1ccccc1NC(=O)CSc1nc2ccccc2c2nc(CCn3cncc3C)nn12	inactive: 0.873%
COc1ccc(OCCn2c(C3CC(=O)N(c4ccc(F)cc4)C3)nc3ccccc32)cc1 (centres undefined)	inactive: 0.474%
Cc1cc(C)cc(OCC(=O)NCC(c2ccc(Cl)cc2)N2CCCCC2)c1 (centres undefined)	inactive: -1.03%
CCc1ccc(CN(Cc2ccco2)C(=O)c2ccccc2Cl)cc1	inactive: -8.01%
Cc1cccc(Cn2c(SCc3ccc(C(=O)N4CCCCCC4)cc3)nc3ccncc32)c1	inactive: 1.99%
COc1cccc(Cn2cc(C(=O)c3ccccc3)c(=O)c3cc4c(cc32)OCO4)c1	inactive: 1.86%
COc1ccc(OC)c(NC(=O)Cn2c(=O)cc(-c3ccccc3)c3c(C)nn(C)c32)c1	inactive: 7.45%
Cc1cccc(N2CCN(C(=O)CS(=O)(=O)Cc3nc(-c4ccccc4C)oc3C)CC2C)c1 (centres undefined)	inactive: -0.78%
Cc1nc2c(C(=O)NC(C)c3ccccc3)cnn2c(C)c1Cc1ccccc1 (centres undefined)	inactive: -7.29%
CCn1cc(C(=O)NCc2ccccc2)c(=O)c2cc(S(=O)(=O)N3CCCCCC3)ccc21	inactive: -12.6%
N#C/C(=C\c1ccc(-c2cc(Cl)ccc2Cl)o1)C(=O)Nc1ccccc1C(=O)O	inactive: 5.36%
CCN1CCN(CCCNC(=O)c2ccc3c(c2)sc2nc(-c4ccc(OC)cc4)cn23)CC1	inactive: -0.0337%
COc1cc(/C=C(\C#N)C(=O)Nc2nnc(C(F)(F)F)s2)ccc1OCc1ccc(C(F)(F)F)cc1C(F)(F)F	inactive: -7.34%
CCn1c(SCc2ccccc2F)nc(=O)c2c(C(=O)OC)cc(C3CC3)nc21	inactive: 5.62%
Cc1cc(C)c(NC(=O)CSc2ncc(S(=O)(=O)c3ccc(C(C)(C)C)cc3)c(=O)[nH]2)c(C)c1	inactive: 7%

Structure (SMILES)	activity change, negative = inhibition
Cc1ccc(Cl)cc1NC(=O)CSc1nc(C)c(C)c(C)c1C#N	inactive: 2.55%
COc1ccc(OC)c(CNC(=O)CSc2c3c(nc4cc(Cl)ccc24)CCCC3)c1	inactive: 2.75%
Cc1nc2c(C(=O)NCCc3ccc(Cl)cc3)cnn2c(C)c1Cc1ccc(F)cc1	inactive: -12.3%
COc1ccc(C(=O)Nc2nc3n(n2)C(c2ccc(Cl)cc2)C=C(c2ccccc2)N3)cc1OC (centres undefined)	inactive: 3.15%
Cc1ccc(CSC2=Nc3ccccc3C3=NC(CC(=O)NCc4ccc5c(c4)OCO5)C(=O)N23)cc1 (centres undefined)	inactive: -6.61%
COc1ccc(OC)c(NC(=O)Cn2c(=O)cc(C)c3c(C)nn(-c4cccc(Cl)c4C)c32)c1	inactive: 10.9%
O=C(NCCc1ccc(Cl)cc1)c1ccc2c(c1)N(Cc1ccc(Cl)cc1)C(=O)CS2	inactive: -0.445%
O=S1(=O)c2ccccc2N(Cc2ccc(Cl)cc2)c2ccccc21	inactive: 3.98%
COc1cccc(C(=O)Nc2ccc3oc(-c4cccc5c(Br)cccc45)nc3c2)c1	inactive: 5.57%
Cc1cc(Cl)ccc1OCC(=O)N(Cc1ccco1)Cc1ccccc1F	inactive: -8%
COc1ccc(NCc2cccn2-c2nnc(N3CCCCCC3)s2)cc1	inactive: -2.84%
CC(=O)c1ccc(NC(=O)C2CCN(c3nnc(C)c4c(C)n(-c5ccccc5)nc34)CC2)cc1	inactive: -10.7%
CCCCn1c(CNC(=O)C23CC4CC(CC(C4)C2)C3)nnc1SCC(=O)Nc1ccc(C)cc1	inactive: -9.95%
Cn1c(=O)c2sccc2n2c(CCCC(=O)Nc3ccc(Oc4ccccc4)cc3)nnc12	inactive: -1.79%
COc1ccc(C(=O)c2cn(Cc3ccccc3F)c3cc4c(cc3c2=O)OCCO4)cc1OC	inactive: 5.33%
COc1ccc(C(=O)c2sc3nc4c(c(C(F)(F)F)c3c2N)CN(C(C)=O)CC4)cc1OC	inactive: -9.61%
Cc1ccc(C2=NN(CC(=O)NCCN(CC(C)C)CC(C)C)C(=O)CC2)cc1	inactive: -12.8%
CC(C)n1c(SCC(=O)Nc2ccc(F)cc2)nc2c(oc3ccccc32)c1=O	inactive: -8.77%
CCN(c1cccc(C)c1)S(=O)(=O)c1nnc(NC(=O)c2ccccc2Cl)s1	inactive: 0.737%
COc1ccc(-c2cn3cccnc3n2)cc1NC(=O)c1cc(C)cc(C)c1	inactive: 3.16%
COc1ccc(CCNC(=O)Cn2c(=O)c3cccn3c3ccc(F)cc32)cc1OC	inactive: 13.5%
Cc1ccc(Nc2c3c(nc4nc(-c5cccs5)nn24)CCCC3)cc1F	inactive: -0.603%
COc1ccc(N2C(=O)CSC23C(=O)N(Cc2cccc(C(F)(F)F)c2)c2ccccc23)cc1 (centres undefined)	inactive: -6.88%
CC(=O)[C@]1(O)Cc2c(O)c3c(c(O)c2[C@@H](O[C@H]2C[C@H](N)[C@H](O)[C@H](C)O2)C1)C(=O)c1ccccc1C3=O	inactive: 65.3%
COc1ccc(-c2csc3nc(-c4ccc(C)cc4)oc(=O)c23)cc1OC	inactive: -0.182%
CCOC(=O)c1ccc(NC(=O)CSc2ncc(S(=O)(=O)c3ccc(C)c(Cl)c3)c(=O)[nH]2)cc1	inactive: -1.48%
CCOc1ccc(NC(=O)[C@@H](c2ccccc2)N2Cc3ccccc3C2=O)cc1	inactive: -0.603%

Structure (SMILES)	activity change, negative = inhibition
COc1cccc(N2CCN(C(=O)c3ccc4c(Cl)c5c(nc4c3)CCCC5)CC2)c1	inactive: -4.95%
Cc1cc2c(cc3c(SCc4cccc(Cl)c4)nnc(C)n32)o1	inactive: -1.12%
COc1ccc(C(=O)N(Cc2ccco2)Cc2ccccc2F)cc1Cl	inactive: -5.67%
O=S(=O)(NCCc1nnc2ccc(SCc3cccc(Cl)c3)nn12)c1ccccc1	inactive: 3.29%
COc1ccc(Nc2ncc(C(=O)Nc3cccc(OC)c3)c3ccccc23)cc1	inactive: -10.9%
Cc1ccc(Cl)cc1N(C)C(=O)c1sc2nc3n(c(=O)c2c1C)CCCC3	inactive: -5.4%
CC1=C(C(=O)NCc2cccc(Cl)c2)C2(CCCCCC2)OC1=O	inactive: -1.36%
Cc1ccc2c(c1)-c1ncc(C(=O)c3cc(Br)ccc3O)cc1CO2	inactive: -6.67%
Cc1cc(C)cc(Nc2cc(C)nc3nc(-c4ccco4)nn23)c1	inactive: 12.5%
O=C(Nc1ccc(F)cc1F)N1CCN(c2ccc(Cl)c(Cl)c2)CC1	inactive: -6.01%
CCCCOc1cccc(C(=O)Nc2cccc3ccc(C)nc23)c1	inactive: -5.04%
COc1cc(OC)cc(C(=O)Nc2ccc3nc(N4CCC(C)CC4)cc(C)c3c2)c1	inactive: -9.5%
Cc1ccc(C)c(N2CCN(C(=O)c3ccc4c(Cl)c5c(nc4c3)CCCC5)CC2)c1	inactive: -5.68%
COc1ccc(C)cc1N(C)C(=O)c1sc2nc3n(c(=O)c2c1C)CCCCC3	inactive: 1.37%
COc1ccccc1-c1nn(CCC(=O)Nc2ccc(C)cc2)c2nc(C)cc(C)c12	inactive: -6.55%
COc1ccc(OCc2nc3ccccc3n2Cc2ccc(C(C)(C)C)cc2)cc1	inactive: -5.44%
Cc1ccc(C)c(N2CCN(CCCNC(=O)c3cnn(-c4cccc(Cl)c4)c3C3CCN(C(=O)OC(C)(C)C)CC3)CC2)c1	inactive: -6.96%
Cc1ccc(-n2ncc(C(=O)NCCN3CCC(Cc4ccccc4)CC3)c2C2CCN(C(=O)OC(C)(C)C)CC2)cc1	inactive: -9.39%
COc1cc2c(cc1OC)C(COc1cc(C)cc(C)c1)N(C(=O)C(C)(C)C)CC2 (centres undefined)	inactive: 6.45%
CCN(CC)CCCNC(=O)c1ccc2c(c1)sc1nc(-c3ccc(C)cc3)cn12	inactive: -8.96%
COc1ccc(Br)cc1CNC(=O)c1cc2n(n1)CCCN(Cc1ccc(C)cc1)C2=O	inactive: -0.912%
CCC(C(=O)Nc1cc(OC)cc(OC)c1)n1nc(-c2ccc(C)c(C)c2)ccc1=O (centres undefined)	inactive: -17.8%
Cc1ccc(C)c(N2CCN(C(=O)c3ccc(CS(=O)(=O)c4ccc(Br)cc4)o3)CC2)c1	inactive: -4.98%
CCC(Sc1nncn2c1cc1occc12)C(=O)Nc1ccc(C)c(Cl)c1 (centres undefined)	inactive: 0.215%
CCCCN(Cc1ccccc1)C(=O)CN(C)S(=O)(=O)c1ccc2c(c1)c(=O)n(C)c(=O)n2C	inactive: 11.1%

Look-ups from the results shown:
Value of Cc1ccc(C)c(N2CCN(C(=O)c3ccc(CS(=O)(=O)c4ccc(Br)cc4)o3)CC2)c1 under activity change, negative = inhibition: inactive: -4.98%
Value of COc1cc(OC)cc(C(=O)Nc2ccc3nc(N4CCC(C)CC4)cc(C)c3c2)c1 under activity change, negative = inhibition: inactive: -9.5%

From PubChem BioAssay AID1347431 (National Center for Advancing Translational Sciences (NCATS), 2020)
